No constants are given. Whether binding was seen depends on the method and setting. For some assays here: In cells and extracts the contact can be indirect. Some binding calls cover weakened binding; strength is not graded here. Where a sequence is shown, tags or fusion partners need not be part of it.
How the values were obtained:
[1] = target: T1, His-tagged full-length BCL10 protein (UniProt O95999); assay: ELISA; 96-well; His-tagged full-length BCL10 immobilised in wells, exposed to protein in solution (GST-tagged full-length MALT1, detected with anti-MALT1 antibody; GRK2 as specificity control); both purified
T1 sequence: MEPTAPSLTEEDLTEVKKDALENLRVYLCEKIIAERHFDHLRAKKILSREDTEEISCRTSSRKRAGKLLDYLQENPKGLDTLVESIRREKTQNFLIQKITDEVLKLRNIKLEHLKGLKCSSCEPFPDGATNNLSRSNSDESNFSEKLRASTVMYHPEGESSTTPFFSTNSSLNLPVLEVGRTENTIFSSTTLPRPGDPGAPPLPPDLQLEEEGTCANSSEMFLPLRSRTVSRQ

Sequences of proteins named here, by UniProt entry; tags and fusion partners are left off. A change or cut given only in a name is not applied to a line headed by its entry.
UniProt P25098: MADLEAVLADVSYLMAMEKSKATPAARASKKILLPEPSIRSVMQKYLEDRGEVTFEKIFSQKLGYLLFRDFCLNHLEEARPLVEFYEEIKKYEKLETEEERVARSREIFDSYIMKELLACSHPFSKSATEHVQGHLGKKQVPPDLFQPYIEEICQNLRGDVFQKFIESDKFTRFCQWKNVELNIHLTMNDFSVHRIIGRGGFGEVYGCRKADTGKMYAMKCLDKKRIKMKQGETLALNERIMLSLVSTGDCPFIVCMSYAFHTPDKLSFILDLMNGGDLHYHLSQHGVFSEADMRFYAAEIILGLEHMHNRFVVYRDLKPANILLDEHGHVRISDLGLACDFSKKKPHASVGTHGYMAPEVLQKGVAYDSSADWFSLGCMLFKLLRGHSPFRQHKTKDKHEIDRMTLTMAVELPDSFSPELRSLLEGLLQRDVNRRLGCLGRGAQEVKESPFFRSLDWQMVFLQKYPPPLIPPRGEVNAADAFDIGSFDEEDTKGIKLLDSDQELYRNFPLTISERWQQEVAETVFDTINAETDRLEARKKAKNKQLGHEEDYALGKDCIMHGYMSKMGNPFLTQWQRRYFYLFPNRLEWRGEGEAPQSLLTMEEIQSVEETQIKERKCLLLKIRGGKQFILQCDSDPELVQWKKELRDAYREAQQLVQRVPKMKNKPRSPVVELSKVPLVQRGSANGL
UniProt Q9UDY8: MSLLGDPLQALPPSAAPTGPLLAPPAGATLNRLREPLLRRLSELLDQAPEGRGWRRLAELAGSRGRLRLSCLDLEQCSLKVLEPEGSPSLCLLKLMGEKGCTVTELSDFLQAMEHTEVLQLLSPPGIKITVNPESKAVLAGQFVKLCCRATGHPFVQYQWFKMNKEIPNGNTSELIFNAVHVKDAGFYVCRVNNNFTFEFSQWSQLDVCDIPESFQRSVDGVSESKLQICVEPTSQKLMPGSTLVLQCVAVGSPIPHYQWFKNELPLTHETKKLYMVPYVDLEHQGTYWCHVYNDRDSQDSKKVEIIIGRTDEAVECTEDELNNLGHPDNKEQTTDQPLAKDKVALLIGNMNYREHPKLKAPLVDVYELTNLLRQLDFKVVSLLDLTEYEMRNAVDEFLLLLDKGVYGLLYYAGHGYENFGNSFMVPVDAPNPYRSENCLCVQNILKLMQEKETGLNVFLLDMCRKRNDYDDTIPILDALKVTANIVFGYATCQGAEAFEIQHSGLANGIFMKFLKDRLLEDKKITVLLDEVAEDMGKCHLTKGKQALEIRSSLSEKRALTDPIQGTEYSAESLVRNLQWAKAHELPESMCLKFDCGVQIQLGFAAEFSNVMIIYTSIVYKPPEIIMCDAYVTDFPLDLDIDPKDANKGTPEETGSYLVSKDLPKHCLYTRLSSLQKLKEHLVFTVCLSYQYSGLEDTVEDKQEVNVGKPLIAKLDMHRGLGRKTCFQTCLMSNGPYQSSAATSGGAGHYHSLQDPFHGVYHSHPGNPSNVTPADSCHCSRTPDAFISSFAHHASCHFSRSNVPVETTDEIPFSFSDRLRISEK

[2] = target: T2, Myc-tagged BCL10 (UniProt O95999); assay: co-IP; HA-tagged MALT1 proteins or fragments with Myc-tagged BCL10 (or Myc-tagged RICK, MAVS), expressed in transiently transfected 293T cells
T2 sequence: T1 sequence

Q: How did the binding [1] turn out when “G protein–coupled receptor kinase 2 (from UniProt P25098 1-689) (enzyme)” was run?
A: The binding was “no binding”.

Q: For “GST-tagged recombinant human full-length MALT1 protein (from UniProt Q9UDY8 1-824)”, which binding [1] is on record?
A: Its binding is “binds”.

Q: “HA-tagged full-length (FL) MALT1 (from UniProt Q9UDY8 1-824)” was tested. Which binding [2] did it give?
A: Its binding is “binds”.

Q: How did the binding [2] turn out when “HA-tagged full-length MALT1 V81R (from UniProt Q9UDY8 1-824)” was run?
A: The binding was “binds”.

Q: Which binding [2] does the source give for “HA-tagged full-length MALT1 V189R (from UniProt Q9UDY8 1-824)” here?
A: The binding was “binds weakly”.

— PMC11996864, “A small-molecule inhibitor of BCL10-MALT1 interaction abrogates progression of diffuse large B cell lymphoma” (The Journal of Clinical Investigation, 2025)
